Source: PubChem BioAssay (NCATS)
Shown are results outside the selection of hits, which stands elsewhere. Inconclusive results are not listed. The source made the active and inactive calls. Unless noted, calls come from the whole dose curve; as a rule, active = well fitted curve in the direction sought with a large enough effect; inconclusive = small, poorly fitted or top-dose-only effect, or another doubt; inactive = no such curve, though single readings can be large; an effect the other way counts as inactive or inconclusive.

Tests used:
[1] = Cell Viability - N2a (AID 540); conditions: N2a mouse neuroblastoma cell viability; at 92.2 µM (top of the series);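 note: plate controls were DMSO alone for no effect and tamoxifen control for full effect; nearly all actives have a fitted effect of over 45% in size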
How it was run: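 N2a mouse neuroblastoma, 1500 cells/well, 5 hr settle; compound 40 hr, 37 °C; CellTiter-Glo 20 min RT; luminescence; Hill-fit AC50.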

[2] = Cell Viability - NIH 3T3 (AID 541); conditions: NIH 3T3 cell viability, qHTS; at 92.2 µM (top of the series);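 note: plate controls were DMSO alone for no effect and tamoxifen positive control for full effect; nearly all actives have a fitted effect of over 25% in size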
How it was run: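 qHTS format; 40 hr compound exposure, 37 °C; CellTiter-Glo luminescence (cellular ATP) read-out after 20 min at RT. Decrease in ATP = cytotoxicity; AC50 from standard Hill fit.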

[3] = Cell Viability - HUV-EC-C (AID 542); conditions: HUV-EC-C endothelial cell viability, qHTS; at 92.2 µM (top of the series); note: % is set by controls: 0 for no effect and ±100 for the full control effect; nearly all actives have a fitted effect of over 35% in size
How it was run: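 Luminescent ATP read-out (CellTiter-Glo, 20 min room temperature) after 40 hr compound treatment of HUV-EC-C cells at 37 °C. Concentration-response data fitted with the standard Hill equation to give AC50; tamoxifen and doxorubicin served as positive controls.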

[4] = Cell Viability - H-4-II-E (AID 543); conditions: H-4-II-E rat hepatoma viability; at 92.2 µM (top of the series); note: % is set by controls: 0 for no effect and ±100 for the full control effect; nearly all actives have a fitted effect of over 35% in size
How it was run: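 qHTS, rat hepatoma H-4-II-E, 1500 cells/well; 40 hr compound exposure, 37 °C; CellTiter-Glo ATP luminescence after 20 min RT; AC50 by standard Hill fit.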

[5] = Cell Viability - SH-SY5Y (AID 544); conditions: SH-SY5Y neuroblastoma cell viability; at 92.2 µM (top of the series);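 note: 0% = DMSO alone and -100% = 100 µM tamoxifen; nearly all actives have a fitted effect of over 55% in size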
How it was run: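 SH-SY5Y, 1500 cells/well, 5 hr pre-incubation 37 °C; cpd 40 hr 37 °C; CellTiter-Glo 20 min RT; luminescence (ATP) read. qHTS concentration-response, Hill fit → AC50. Tamoxifen, doxorubicin as positive controls.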

[6] = Cell Viability - Renal Proximal Tubule (AID 545); conditions: renal proximal tubule cells viability, primary cells of rat origin; at 91.7 µM (top of the series);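 note: 0% = DMSO only and -100% = 100 µM tamoxifen; nearly all actives have a fitted effect of over 40% in size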
From the text: NIH Chemical Genomics Center [NCGC]
NIH Molecular Libraries Screening Centers Network [MLSCN]
National Institutes of Environmental Health Sciences [NIEHS]
National Toxicology Program [NTP]
We have developed a 1536-well cell-based assay for quantitative high throughput screening (qHTS) against a number of cell lines to determine in vitro cytotoxicity of small molecules. This particular assay uses the renal proximal tubule cells which are derived from normal kidney cells freshly isolated from rat.
NCGC Assay Protocol Summary:
The CellTiter-Glo luminescent cell viability assay (Promega) is a homogeneous method to measure the number of viable cells in culture. The end point readout of this assay is based on quantitation of intracellular ATP, an indicator of metabolic activity, using the luciferase reaction. Luciferase catalyzes the oxidation of beetle Luciferin to oxyluciferin and light in the presence of ATP. The luminescent signal is proportional to amount of ATP present.
Using the CellTiter-Glo luminescent cell viability assay, the amount of cellular ATP was measured in the renal proximal tubule cells with complete culture medium following compound treatment for 40 hours. The assay was performed in opaque white Kalypsys 1536-well plates. In the screen, tamoxifen and doxorubicin were used as positive controls. Library compounds were measured for their ability to cause acute toxicity in the cell line, as reflected by a decrease in intracellular ATP levels, in a concentration-dependent manner. […] AC50 values were determined from concentration-response data modeled with the standard Hill equation.
qHTS protocol for CellTiter Glo renal proximal tubule cell assay
[Step] [Parameter] [Value] [Description]
1. Reagent; 5 uL; 1000 renal proximal tubule cells/well
2. Time; 5 hr; 37 °C incubation
4. Controls; 23 nL; Tamoxifen 0.34 uM to 100 uM & Doxorubicin 0.02 nM to 100 uM
5. Time; 40 hr; 37 °C incubation
6. Reagent; 5 uL; CellTiter Glo reagent
7. Time; 20 min; Room Temperature
8. Detection; Luminescence; Viewlux plate reader
Keywords: cell viability, cytotoxicity, renal proximal tubule cells, luminescence, NTPHTS, NTPHTS_NCGC, NIEHS, EPA, DSSTox, MLSMR, MLSCN, NIH Roadmap, qHTS, NCGC

[7] = Cell Viability - Mesenchymal (AID 546); conditions: mesenchymal cells viability, qHTS; at 91.7 µM (top of the series);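 note: cells exposed to compound for 40 hours before reading; 0% = DMSO only and -100% = 100 µM tamoxifen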
How it was run: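 In this qHTS cytotoxicity format, glomerulus-derived human mesenchymal kidney cells received compound for 40 hr, then luciferase-based ATP quantitation. Concentration-response data were fitted with the Hill equation.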

[8] = Cell Viability - LYMP1-002 - Assay at 16 hr (AID 948); conditions: LYMP1-002 lymphoblastoid cell viability; at 92.2 µM (top of the series);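 note: 0% = DMSO alone and full effect = 92 µM tetraoctylammonium bromide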
How it was run: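 LYMP1-002 human lymphoblastoid cells, 2500/well; 5 hr 37 C; cpd 16 hr 37 C; CellTiter-Glo 30 min RT; luminescence (ATP). Concentration-response, Hill-fit AC50. Pos ctrl tetraoctylammonium bromide.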

[9] = target: Mitogen-activated protein kinase 10 (Mus musculus) (UniProt Q61831); assay: JNK3 AlphaScreen Assay (AID 530; active = well fitted curve in either direction with a large enough effect, not every such curve was filed as active;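 note: kinase came from lysate of stimulated human HepG2 cells; signal reports phosphorylation of biotinylated GST-cJun 1-79 at Ser73 with 10 µM ATP; % is set by controls: 0 for no effect and ±100 for the full control effect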); conditions: JNK3 lysate, c-Jun phosphorylation; at 57.1 µM (top of the series)
How it was run: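 Biotinylated GST-cJun(1-79) served as substrate for JNK3 in HepG2 lysates stimulated with IL-1beta and TNF-alpha. ATP was 10 uM final, pH 7.6. Ser73 phosphorylation was quantified by AlphaScreen (680 nm excitation).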

[10] = Cell Viability - LYMP2-001 (AID 921); conditions: LYMP2-001 lymphoblastoid cell viability; at 92.2 µM (top of the series);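 note: cells exposed to compound for 24 h at 37 °C; 0% = DMSO only and full inhibition = tetraoctylammonium bromide control wells; nearly all actives have a fitted effect of over 70% in size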
How it was run: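 CellTiter-Glo luminescence (intracellular ATP) after 24 hr compound exposure at 37 C, 2500 lymphoblastoid cells/well in complete medium. AC50 fitted with standard Hill equation; tetraoctylammonium bromide positive control.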

O=[N+]([O-])c1ccccc1Cl
inactive: activity change, negative = cytotoxicity [1] -3.97% | activity change, negative = cytotoxicity [2] -7.44% | activity change, negative = cytotoxicity [3] -6.25% | activity change, negative = cytotoxic [4] -0.391% | viability change, negative = cytotoxic [5] 4.6% | activity change, negative = cytotoxicity [6] 1.25% | activity change, negative = cytotoxicity [7] 1.66% | activity change, negative = cytotoxicity [8] -4.72%

Cc1ccc2ccccc2c1C
inactive: activity change, negative = inhibition [9] -18.7% | activity change, negative = cytotoxicity [1] 0.275% | activity change, negative = cytotoxicity [2] 4.85% | activity change, negative = cytotoxicity [3] 5.79% | activity change, negative = cytotoxic [4] 1.08% | viability change, negative = cytotoxic [5] -0.00573% | activity change, negative = cytotoxicity [6] -4.75% | activity change, negative = cytotoxicity [7] 0.684% | activity change, negative = cytotoxic [10] -0.723% | activity change, negative = cytotoxicity [8] 1.86%

Cc1ccc(O)cc1C
inactive: activity change, negative = inhibition [9] 15.5% | activity change, negative = cytotoxicity [1] -5.53% | activity change, negative = cytotoxicity [2] -27.2% | activity change, negative = cytotoxicity [3] -15.2% | activity change, negative = cytotoxic [4] -7.94% | viability change, negative = cytotoxic [5] -21.8% | activity change, negative = cytotoxicity [6] -5.07% | activity change, negative = cytotoxicity [7] 0.459% | activity change, negative = cytotoxic [10] 14.1% | activity change, negative = cytotoxicity [8] 2.53%

Oc1c(Cl)cc(Cl)cc1Cl
inactive: activity change, negative = cytotoxicity [1] -7.14% | activity change, negative = cytotoxicity [3] 7.11% | activity change, negative = cytotoxic [4] -15.2% | viability change, negative = cytotoxic [5] -25.1% | activity change, negative = cytotoxicity [6] -3.28% | activity change, negative = cytotoxicity [7] -4.26% | activity change, negative = cytotoxic [10] 4.88% | activity change, negative = cytotoxicity [8] -6.51%
